Source: patent publication US12077599 (SEOUL NATIONAL UNIVERSITY R AND DB FOUNDATION NATIONAL …, dated 2024)
Results are given in words; binding and its absence hold for the method and conditions named. Some results given as binding are weak or reduced against the parent protein; the word gives no strength. Sequences can lack the tags named with a protein.

Sequences of proteins named here, by UniProt entry; tags and fusion partners are left off. Residues count along the entry.
UniProt P38646, residues 47-679: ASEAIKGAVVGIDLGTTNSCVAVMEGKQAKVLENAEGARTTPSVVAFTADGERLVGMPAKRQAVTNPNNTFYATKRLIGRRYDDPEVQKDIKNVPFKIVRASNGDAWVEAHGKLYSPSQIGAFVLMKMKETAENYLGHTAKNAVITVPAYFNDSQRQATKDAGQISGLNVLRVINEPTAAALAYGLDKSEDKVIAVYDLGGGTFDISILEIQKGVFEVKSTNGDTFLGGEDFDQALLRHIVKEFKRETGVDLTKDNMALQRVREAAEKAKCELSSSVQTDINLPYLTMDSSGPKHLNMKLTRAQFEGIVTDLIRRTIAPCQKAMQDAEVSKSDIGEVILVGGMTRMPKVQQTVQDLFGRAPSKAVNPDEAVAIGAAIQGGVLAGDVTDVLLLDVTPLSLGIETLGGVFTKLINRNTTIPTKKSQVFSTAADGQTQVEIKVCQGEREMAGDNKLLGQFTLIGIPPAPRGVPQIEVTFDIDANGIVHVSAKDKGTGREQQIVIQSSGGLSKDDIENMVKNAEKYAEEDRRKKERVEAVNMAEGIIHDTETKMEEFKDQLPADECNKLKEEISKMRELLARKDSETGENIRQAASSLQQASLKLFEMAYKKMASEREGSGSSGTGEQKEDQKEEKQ
UniProt P11021, residues 19-654: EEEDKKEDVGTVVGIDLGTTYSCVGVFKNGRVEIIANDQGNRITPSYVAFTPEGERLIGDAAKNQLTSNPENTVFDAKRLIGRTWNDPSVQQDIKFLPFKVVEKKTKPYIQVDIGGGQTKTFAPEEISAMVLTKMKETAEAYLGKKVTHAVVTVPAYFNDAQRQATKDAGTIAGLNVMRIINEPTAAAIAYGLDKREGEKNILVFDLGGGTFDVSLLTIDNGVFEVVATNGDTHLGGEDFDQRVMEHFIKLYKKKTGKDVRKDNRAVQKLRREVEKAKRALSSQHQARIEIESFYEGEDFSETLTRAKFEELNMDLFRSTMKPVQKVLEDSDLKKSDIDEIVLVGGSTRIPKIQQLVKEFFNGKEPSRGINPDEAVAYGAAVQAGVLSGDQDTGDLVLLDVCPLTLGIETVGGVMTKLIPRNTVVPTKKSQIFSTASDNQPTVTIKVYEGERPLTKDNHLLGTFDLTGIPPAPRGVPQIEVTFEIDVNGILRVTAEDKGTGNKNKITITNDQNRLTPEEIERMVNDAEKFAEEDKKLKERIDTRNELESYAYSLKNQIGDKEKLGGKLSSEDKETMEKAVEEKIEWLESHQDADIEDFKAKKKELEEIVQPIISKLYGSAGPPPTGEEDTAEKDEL

Legend:
[1] = molecular target: GRP75 (Enzo Life Sciences) (UniProt P38646); assay: ELISA, GRP75 coated, scFv-rFc at 0 to 2000 ng/ml, HRP anti-rabbit IgG
[2] = molecular target: 78 kDa glucose-regulated protein (GRP78), from HEK293T cell lysate (human) (UniProt P11021); assay: immunoprecipitation with 3B20 scFv-rFc from HEK293T lysates, LC-MS of the 70 kDa band

B1: 3B20 scFv-rFc fusion protein (Fc fusion, rabbit)
chain: LTQPSSVSANLGGTVKITCSGGSYGYGWYQQKAPGSAPVTVIYDNTNRPSDIPSRFSGSKSGSTGTLTITGVQVEDEAVYYCGSADSSSIATFGAGTTLTVLGQSSRSSGGGGSSGGGGSAVTLDESGGGLQTPGGTLSLVCKASGFSFSDRGMHWMRQAPGKGLEYVGAISGDGYITHYGAAVKGRATISRDNGQSTVRLQLNNLRAEDTATYYCTRGGGGNIDAWGHGTEVIVSSTS
notes: domain: fragment crystallizable region Fc (rFc); scFv fused with rabbit Fc, expressed from modified pCEP4; also called 3B20-rFc; scFv(3B20)-rFc fusion protein; not shown: rabbit antibody fragment crystallizable region Fc (rFc)
[1]
  binding: binds
[2]
  binding: binds
